Assay results: US11090383 (CENTRE FOR DRUG RESEARCH AND DEVELOPMENT, dated 2021)
No constants are given. Whether binding was seen depends on the method and setting.

Molecular target: macaque podocalyxin (Macaque Kidney) (macaque (species not further named))
Test: IHC, formalin fixed normal macaque kidney

- binding: no binding (tested: 1:25 dilution)
B1: Podo447 antibody, recombinant rabbit/human IgG1 chimera (antibody, V domains shown)
VH: QSLEESGGRLVTPGTPLTLTCTASGFSLSGYQMNWVRQAPGKGLEWIGYIWSDGGTDYASWAKGRFTISKTSSTTVDLKMTSLTTEDTATYFCAREGYWLGAFDPWGPGTLVTVSS
VL: AAVLTQTPSPVSAAVGATVSVSCQSSQSVHHKNDLAWFQQKPGQPPKLLIYYTSTLASGVPSRFKGSGSGTQFTLTISDLECDDAATYYCAGVYEGSSDNRAFGGGTEVVVKR
notes: also called anti-Podo
